Measured values published in paper doi:10.1101/2022.03.28.486104.
No constants are given. Whether binding was seen depends on the method and setting. Binding seen in cells or lysates may run through a third protein.

By UniProt entry, the sequences of proteins in these tests, tags left out. Residues count along the entry.
UniProt Q9NZQ7, residues 19-290: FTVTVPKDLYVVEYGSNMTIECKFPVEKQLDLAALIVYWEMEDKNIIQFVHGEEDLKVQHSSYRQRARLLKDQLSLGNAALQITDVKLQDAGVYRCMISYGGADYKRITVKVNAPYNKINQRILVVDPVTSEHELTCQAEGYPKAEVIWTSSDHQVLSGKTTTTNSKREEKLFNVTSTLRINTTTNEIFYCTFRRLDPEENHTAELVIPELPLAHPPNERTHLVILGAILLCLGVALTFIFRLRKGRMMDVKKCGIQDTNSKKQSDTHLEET
UniProt P42081, residues 24-329: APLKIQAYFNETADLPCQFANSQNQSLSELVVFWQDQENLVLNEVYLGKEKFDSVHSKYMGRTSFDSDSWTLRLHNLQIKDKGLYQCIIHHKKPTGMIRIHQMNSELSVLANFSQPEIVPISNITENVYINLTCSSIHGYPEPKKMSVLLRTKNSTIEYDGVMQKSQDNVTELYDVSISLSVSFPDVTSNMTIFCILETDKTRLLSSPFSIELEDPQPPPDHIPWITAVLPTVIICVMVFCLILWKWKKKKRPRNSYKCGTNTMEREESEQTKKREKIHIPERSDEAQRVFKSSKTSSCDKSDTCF

Target: PD-L1 C-terminally tagged with mCherry, in DG-75 B cells (human) (UniProt Q9NZQ7)
Assay: co-IP + cross-linking

## CD86 C-terminally tagged with GFP, in DG-75 B cells (from UniProt P42081 24-329) (ligand)
  binding: no binding
